Some results were stated once for a whole list of compounds, not compound by compound.
Assay: Evaluation of solubility in organic solvent
Type: physicochemical
Settings: summary of Table 2

SMILES | solubility in an organic solvent
C=C(C)C(=O)OCC(COC(=O)C(=C)C)OC(=O)CCC(=O)OCC(CC(C)C)N1C(=O)c2cc(Cl)c3c4c(Cl)cc5c6c(cc(Cl)c(c7c(Cl)cc(c2c37)C1=O)c64)C(=O)N(C(COC(=O)CCC(=O)OC(COC(=O)C(=C)C)COC(=O)C(=C)C)CC(C)C)C5=O (centres unmarked) [Compound 4] | excellent solubility
C=C(C)C(=O)OCC(COC(=O)C(=C)C)OC(=O)CCC(=O)OCC(CC(C)C)N1C(=O)c2ccc3c4ccc5c6c(ccc(c7ccc(c2c37)C1=O)c64)C(=O)N(C(COC(=O)CCC(=O)OC(COC(=O)C(=C)C)COC(=O)C(=C)C)CC(C)C)C5=O (centres unmarked) [Compound 2] | excellent solubility
